Test results reported in paper PMC7719173.
Results are given in words; binding and its absence hold for the method and conditions named. Some binding calls cover weakened binding; strength is not graded here.

Molecular target: TRAPPC4 (human) (UniProt Q9Y296)
Assay: HDX-MS; 1 uM Rab1, Rab11 or Rab43 and 350 nM TRAPPII; 20 mM EDTA for 30 min on ice to release nucleotide; 3, 30, 300, 3000 s at room temperature; 85% D2O, 10 mM HEPES pH 7.5, 50 mM NaCl; both purified

binding: binds
Substance: Rab11 (from UniProt P62491 1-216)
